Test results from US20100048652A1, “INSECTICIDAL COMPOUNDS” (SYNGENTA CROP PROTECTION, INC., priority 2006, published 2010).
Some of these results come from one statement about several compounds together.

What was measured:
Format in all cases: in vivo
Plutella xylostella = Plutella xylostella (diamond back moth) larval test on artificial diet; details: 200 ppm (concentration in well 18 ppm), L2 larvae, 6 days, larval mortality, growth regulation
Diabrotica balteata = Diabrotica balteata (corn root worm) larval test on artificial diet; details: 200 ppm (concentration in well 18 ppm), L2 larvae, 5 days, larval mortality, growth regulation
Heliothis virescens = Heliothis virescens (tobacco budworm) egg test on artificial diet; details: 200 ppm (concentration in well 18 ppm), eggs 0-24 h old on artificial diet, 4 days; egg mortality, larval mortality, growth regulation
Aedes aegypti = Aedes aegypti (yellow fever mosquito) larval test; details: 2 ppm, L2 larvae with nutrition mixture, 2 days; mortality, growth inhibition
Spodoptera littoralis = Spodoptera littoralis (Egyptian cotton leafworm) leaf disc spray test; details: 200 ppm sprayed on cotton leaf discs, L1 larvae, 3 days after treatment; mortality, feeding behaviour, growth regulation

Cc1cc(C2(C(F)(F)F)CC(c3ccc(Cl)cc3)=NO2)cc(C)c1NC(=O)c1cccc(NC(=O)c2cccc(Cl)c2)c1 (stereo not drawn) [Compound A15]
at least 80%: control of Plutella xylostella (Plutella xylostella) | control of Diabrotica balteata (Diabrotica balteata) | control of Heliothis virescens (Heliothis virescens) | control of Aedes aegypti (Aedes aegypti)

Cc1cc(C2(C(F)(F)F)CC(c3ccc(Cl)cc3)=NO2)cc(C)c1NC(=O)c1cccc(NC(=O)c2ccc(Br)o2)c1 (stereo not drawn) [Compound A18]
at least 80%: control of Plutella xylostella (Plutella xylostella) | control of Diabrotica balteata (Diabrotica balteata) | control of Heliothis virescens (Heliothis virescens) | control of Aedes aegypti (Aedes aegypti)

Cc1cc(C2(C(F)(F)F)CC(c3ccc(Cl)cc3)=NO2)cc(C)c1NC(=O)c1cccc(NC(=O)c2ccccc2)c1 (stereo not drawn) [Compound A25]
at least 80%: control of Plutella xylostella (Plutella xylostella) | control of Diabrotica balteata (Diabrotica balteata) | control of Heliothis virescens (Heliothis virescens) | control of Aedes aegypti (Aedes aegypti) | control of Spodoptera littoralis (Spodoptera littoralis)

Cc1cc(C2(C(F)(F)F)CC(c3ccc(Cl)cc3)=NO2)cc(C)c1NC(=O)c1cccc(NC(=O)c2cccnc2F)c1 (stereo not drawn) [Compound A13]
at least 80%: control of Plutella xylostella (Plutella xylostella) | control of Diabrotica balteata (Diabrotica balteata) | control of Heliothis virescens (Heliothis virescens) | control of Aedes aegypti (Aedes aegypti) | control of Spodoptera littoralis (Spodoptera littoralis)

Cc1cc(C2(C(F)(F)F)CC(c3ccc(Cl)cc3)=NO2)cc(C)c1NC(=O)c1cccc(NC(=O)c2ccc(C#N)cc2)c1 (stereo not drawn) [Compound A14]
at least 80%: control of Plutella xylostella (Plutella xylostella) | control of Diabrotica balteata (Diabrotica balteata) | control of Heliothis virescens (Heliothis virescens) | control of Aedes aegypti (Aedes aegypti)

Cc1cc(C2(C(F)(F)F)CC(c3ccc(C(F)(F)F)cc3)=NO2)cc(C)c1NC(=O)c1cccc(NC(=O)c2ccc(F)cc2)c1 (stereo not drawn) [Compound A7]
at least 80%: control of Aedes aegypti (Aedes aegypti)

Cc1cc(C2(C(F)(F)F)CC(c3ccc(F)cc3)=NO2)cc(C)c1NC(=O)c1cccc(NC(=O)c2cccc(F)c2F)c1 (stereo not drawn) [Compound A9]
at least 80%: control of Plutella xylostella (Plutella xylostella) | control of Diabrotica balteata (Diabrotica balteata) | control of Heliothis virescens (Heliothis virescens) | control of Aedes aegypti (Aedes aegypti) | control of Spodoptera littoralis (Spodoptera littoralis)

Cc1cc(C2(C(F)(F)F)CC(c3ccc(Cl)cc3)=NO2)cc(C)c1NC(=O)c1cccc(NC(=O)c2csnn2)c1 (stereo not drawn) [Compound A28]
at least 80%: control of Heliothis virescens (Heliothis virescens)

Cc1ccccc1C(=O)Nc1cccc(C(=O)Nc2c(C)cc(C3(C(F)(F)F)CC(c4ccc(F)cc4)=NO3)cc2C)c1 (stereo not drawn) [Compound A4]
at least 80%: control of Plutella xylostella (Plutella xylostella) | control of Diabrotica balteata (Diabrotica balteata) | control of Heliothis virescens (Heliothis virescens) | control of Aedes aegypti (Aedes aegypti)

Cc1cc(C2(C(F)(F)F)CC(c3ccc(F)cc3)=NO2)ccc1NC(=O)c1cccc(NC(=O)c2ccc(C#N)cc2)c1 (stereo not drawn) [Compound A1]
at least 80%: control of Aedes aegypti (Aedes aegypti)

Cc1cc(C(=O)Nc2cccc(C(=O)Nc3c(C)cc(C4(C(F)(F)F)CC(c5ccc(Cl)cc5)=NO4)cc3C)c2)n(C)n1 (stereo not drawn) [Compound A27]
at least 80%: control of Plutella xylostella (Plutella xylostella) | control of Diabrotica balteata (Diabrotica balteata) | control of Heliothis virescens (Heliothis virescens)

Cc1cc(C2(C(F)(F)F)CC(c3ccc(Cl)cc3)=NO2)cc(C)c1NC(=O)c1cccc(NC(=O)c2ccc(Cl)nc2)c1 (stereo not drawn) [Compound A23]
at least 80%: control of Plutella xylostella (Plutella xylostella) | control of Diabrotica balteata (Diabrotica balteata) | control of Heliothis virescens (Heliothis virescens) | control of Aedes aegypti (Aedes aegypti)

Cc1cccnc1C(=O)Nc1cccc(C(=O)Nc2c(C)cc(C3(C(F)(F)F)CC(c4ccc(Cl)cc4)=NO3)cc2C)c1 (stereo not drawn) [Compound A29]
at least 80%: control of Plutella xylostella (Plutella xylostella) | control of Diabrotica balteata (Diabrotica balteata) | control of Heliothis virescens (Heliothis virescens)

Cc1cc(C2(C(F)(F)F)CC(c3ccc(C(F)(F)F)cc3)=NO2)cc(C)c1NC(=O)c1cccc(NC(=O)c2cccc(F)c2F)c1 (stereo not drawn) [Compound A10]
at least 80%: control of Aedes aegypti (Aedes aegypti)

Cc1cc(C2(C(F)(F)F)CC(c3ccc(F)cc3)=NO2)cc(C)c1NC(=O)c1cccc(NC(=O)c2ccc(F)cc2)c1 (stereo not drawn) [Compound A6]
at least 80%: control of Plutella xylostella (Plutella xylostella) | control of Diabrotica balteata (Diabrotica balteata) | control of Heliothis virescens (Heliothis virescens) | control of Aedes aegypti (Aedes aegypti)

Cc1ccccc1C(=O)Nc1cccc(C(=O)Nc2c(C)cc(C3(C(F)(F)F)CC(c4ccc(Cl)cc4)=NO3)cc2C)c1 (stereo not drawn) [Compound A5]
at least 80%: control of Plutella xylostella (Plutella xylostella) | control of Diabrotica balteata (Diabrotica balteata) | control of Heliothis virescens (Heliothis virescens) | control of Aedes aegypti (Aedes aegypti) | control of Spodoptera littoralis (Spodoptera littoralis)

2-methyl-benzoic acid 3-{4-[3-(4-fluoro-phenyl)-5-trifluoro-methyl-4,5-dihydro-isoxazol-5-yl]-2,6-dimethyl-phenylcarbamoyl}-phenyl amide [Compound A3]
at least 80%: control of Plutella xylostella (Plutella xylostella) | control of Heliothis virescens (Heliothis virescens) | control of Aedes aegypti (Aedes aegypti) | control of Spodoptera littoralis (Spodoptera littoralis)

Cc1cc(C2(C(F)(F)F)CC(c3ccc(Cl)cc3)=NO2)cc(C)c1NC(=O)c1cccc(NC(=O)c2ccc(Cl)s2)c1 (stereo not drawn) [Compound A26]
at least 80%: control of Diabrotica balteata (Diabrotica balteata) | control of Heliothis virescens (Heliothis virescens)

Cc1cc(C2(C(F)(F)F)CC(c3ccc(Cl)cc3)=NO2)cc(C)c1NC(=O)c1cccc(NC(=O)c2cccc(F)c2F)c1 (stereo not drawn) [Compound A11]
at least 80%: control of Plutella xylostella (Plutella xylostella) | control of Diabrotica balteata (Diabrotica balteata) | control of Heliothis virescens (Heliothis virescens) | control of Aedes aegypti (Aedes aegypti) | control of Spodoptera littoralis (Spodoptera littoralis)

Cc1cc(C2(C(F)(F)F)CC(c3ccc(Cl)cc3)=NO2)cc(C)c1NC(=O)c1cccc(NC(=O)c2ccc([N+](=O)[O-])cc2)c1 (stereo not drawn) [Compound A24]
at least 80%: control of Plutella xylostella (Plutella xylostella) | control of Diabrotica balteata (Diabrotica balteata) | control of Heliothis virescens (Heliothis virescens) | control of Aedes aegypti (Aedes aegypti)

Cc1cc(C2(C(F)(F)F)CC(c3ccc(Cl)cc3)=NO2)cc(C)c1NC(=O)c1cccc(NC(=O)c2cccnc2Cl)c1 (stereo not drawn) [Compound A12]
at least 80%: control of Plutella xylostella (Plutella xylostella) | control of Diabrotica balteata (Diabrotica balteata) | control of Heliothis virescens (Heliothis virescens) | control of Aedes aegypti (Aedes aegypti) | control of Spodoptera littoralis (Spodoptera littoralis)

CSc1ncccc1C(=O)Nc1cccc(C(=O)Nc2c(C)cc(C3(C(F)(F)F)CC(c4ccc(Cl)cc4)=NO3)cc2C)c1 (stereo not drawn) [Compound A21]
at least 80%: control of Diabrotica balteata (Diabrotica balteata) | control of Heliothis virescens (Heliothis virescens)

Cc1cc(C2(C(F)(F)F)CC(c3ccc(F)cc3)=NO2)cc(C)c1NC(=O)c1cccc(NC(=O)c2ccc(C#N)cc2)c1 (stereo not drawn) [Compound A2]
at least 80%: control of Diabrotica balteata (Diabrotica balteata) | control of Heliothis virescens (Heliothis virescens) | control of Aedes aegypti (Aedes aegypti)

Cc1cc(C2(C(F)(F)F)CC(c3ccc(Cl)cc3)=NO2)cc(C)c1NC(=O)c1cccc(NC(=O)c2ccc(F)cc2)c1 (stereo not drawn) [Compound A8]
at least 80%: control of Plutella xylostella (Plutella xylostella) | control of Diabrotica balteata (Diabrotica balteata) | control of Heliothis virescens (Heliothis virescens) | control of Aedes aegypti (Aedes aegypti) | control of Spodoptera littoralis (Spodoptera littoralis)

Cc1cc(C2(C(F)(F)F)CC(c3ccc(Cl)cc3)=NO2)cc(C)c1NC(=O)c1cccc(NC(=O)c2cc(Cl)ccc2Cl)c1 (stereo not drawn) [Compound A22]
at least 80%: control of Plutella xylostella (Plutella xylostella) | control of Diabrotica balteata (Diabrotica balteata) | control of Heliothis virescens (Heliothis virescens)

Cc1cc(C2(C(F)(F)F)CC(c3ccc(Cl)cc3)=NO2)cc(C)c1NC(=O)c1cccc(NC(=O)c2ccnc(Cl)c2)c1 (stereo not drawn) [Compound A16]
at least 80%: control of Plutella xylostella (Plutella xylostella) | control of Diabrotica balteata (Diabrotica balteata) | control of Heliothis virescens (Heliothis virescens) | control of Aedes aegypti (Aedes aegypti)

Cc1cc(C2(C(F)(F)F)CC(c3ccc(Cl)cc3)=NO2)cc(C)c1NC(=O)c1cccc(NC(=O)c2ccccc2Br)c1 (stereo not drawn) [Compound A19]
at least 80%: control of Plutella xylostella (Plutella xylostella) | control of Diabrotica balteata (Diabrotica balteata) | control of Heliothis virescens (Heliothis virescens) | control of Spodoptera littoralis (Spodoptera littoralis)

Cc1cc(C2(C(F)(F)F)CC(c3ccc(Cl)cc3)=NO2)cc(C)c1NC(=O)c1cccc(NC(=O)c2cncc(Br)c2)c1 (stereo not drawn) [Compound A17]
at least 80%: control of Plutella xylostella (Plutella xylostella) | control of Diabrotica balteata (Diabrotica balteata) | control of Heliothis virescens (Heliothis virescens) | control of Aedes aegypti (Aedes aegypti)
